Earlier results as cited in US20250281461A1 (The Board of Supervisors of Louisiana State University and …, priority 2021, published 2025).

System: SARS-COV-2 virus
Conditions: read-out: EC50 for the inhibition of SARS-COV-2 virus; initial estimates; cited from earlier work

## Cc1ccc(NC(=O)c2ccc(CN3CCN(C)CC3)cc2)cc1Nc1nccc(-c2cccnc2)n1 [Imatinib]
  EC50: ~2500 nM
